From paper PMC7615804
Results are given in words; binding and its absence hold for the method and conditions named.

Legend:
[1] = target: GST-JIP3^563-585 F576A (human) (UniProt Q9UPT6); experiment: pull-down; GST pull-down on glutathione resin with GST-JIP3^helix constructs as bait and RH1 domain constructs as prey; purified recombinant proteins, 50 - 300 pmol each in 20 μL GST-PD buffer (50 mM HEPES pH 7.5, 100 mM KCl, 1 mM MgCl2, 1 mM DTT), room temperature; Coomassie-stained SDS-PAGE; both purified
[2] = target: GST-JIP3^563-585 L579A (human) (UniProt Q9UPT6); experiment: as above

B1: JIP3^1-108 (RH1 domain construct) (domain or fragment, UniProt Q9ESN9-5 1-108)
chain: MMEIQMDEGGGVVVYQDDYCSGSVMSERVSGLAGSIYREFERLIHCYDEEVVKELMPLVVNVLENLDSVLSENQEHEVELELLREDNEQLLTQYEREKALRKQAEEKF
Q: Which results are given for B1?
A: binding [1]: no binding (tested: 50 - 300 pmol each in 20 μL); binding [2]: no binding (tested: 50 - 300 pmol each in 20 μL)
